These are yes or no findings as the source states them, for the method shown. Binding can be weak; no strength is given.
Target: Recombinant human His-PPARγ-LBD fragment (ligand binding domain), not phosphorylated (human)
Assay: AlphaScreen or HTRF; in vitro phosphorylation reaction first (LBD, CDK5/p25, with or without ATP, 30°C 30 min), 2 μM Chi, Ros or Pio added in or after the reaction, then the conventional AlphaScreen procedure; fold change with agonist over vehicle (DMSO); both purified

**Q.** With SPKKKENNALLRYLLDRDD (biotin on the N-terminus) [SRC3-3 (nuclear receptor coactivator 3) biotinylated peptide motif] as the binder, how does the binding read?
**A.** Its binding is “binds”.

Reference: paper PMC5625810, “Chiglitazar Preferentially Regulates Gene Expression via Configuration-Restricted Binding and Phosphorylation Inhibition of PPARγ” (PPAR Research, 2017)
